The text below walks through data of paper PMC8417825, “Light-Induced Dynamic Change of Phytochrome B and Cryptochrome 1 Stabilizes SINATs in Arabidopsis” (Frontiers in Plant Science, 2021).

These are yes or no findings as the source states them, for the method shown. Binding can be weak; no strength is given. Sequences can lack the tags named with a protein. For some assays here: Binding seen in cells or lysates may run through a third protein.

The target of test [1] is T1, CRY1-C-GST (Arabidopsis thaliana) (UniProt Q43125).
T1 sequence: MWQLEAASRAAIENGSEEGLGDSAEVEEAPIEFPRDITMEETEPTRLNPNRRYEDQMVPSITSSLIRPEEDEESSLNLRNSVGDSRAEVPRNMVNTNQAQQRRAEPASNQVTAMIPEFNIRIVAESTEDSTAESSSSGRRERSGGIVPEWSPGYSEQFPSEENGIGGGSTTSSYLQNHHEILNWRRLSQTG
The test can be described thus: pull-down; semi-in vivo pull-down: GST fusion pre-incubated with GST beads at 4°C for 1 h, incubated with total protein extract of 2-week-old SINAT2-FLAG or SINAT5-FLAG plants (100 mM Tris-HCl pH 7.5, 300 mM NaCl, 2 mM EDTA, 1% Triton X-100, 10% glycerol, 50 uM MG132); washed with 1x PBS, 0.1% Triton X-100; anti-FLAG blot; only the target purified.

Test [2] has as its target T1, CRY1-C-GST (Arabidopsis thaliana). Kind of test: pull-down; in vitro pull-down: about 5 ug GST-tagged protein on glutathione resin, about 2 ug His-tagged protein added, 1 h at 4°C; washed with 1x PBS, 0.1% Triton X-100; anti-His blot; both purified.

SINAT5-FLAG (Arabidopsis thaliana): the binding entry in test [1] was “binds”.

For the substance SINAT5-His (Arabidopsis thaliana), the binding entry in test [2] is recorded as “binds”.
